37 targets from the supplement of paper PMC11006884 can be followed below.

Chains of the proteins cited; added tags and fusions are not shown. Lines headed by an entry give the natural chain unless they say otherwise; changes in a name come on top.
UniProt Q9ULT8: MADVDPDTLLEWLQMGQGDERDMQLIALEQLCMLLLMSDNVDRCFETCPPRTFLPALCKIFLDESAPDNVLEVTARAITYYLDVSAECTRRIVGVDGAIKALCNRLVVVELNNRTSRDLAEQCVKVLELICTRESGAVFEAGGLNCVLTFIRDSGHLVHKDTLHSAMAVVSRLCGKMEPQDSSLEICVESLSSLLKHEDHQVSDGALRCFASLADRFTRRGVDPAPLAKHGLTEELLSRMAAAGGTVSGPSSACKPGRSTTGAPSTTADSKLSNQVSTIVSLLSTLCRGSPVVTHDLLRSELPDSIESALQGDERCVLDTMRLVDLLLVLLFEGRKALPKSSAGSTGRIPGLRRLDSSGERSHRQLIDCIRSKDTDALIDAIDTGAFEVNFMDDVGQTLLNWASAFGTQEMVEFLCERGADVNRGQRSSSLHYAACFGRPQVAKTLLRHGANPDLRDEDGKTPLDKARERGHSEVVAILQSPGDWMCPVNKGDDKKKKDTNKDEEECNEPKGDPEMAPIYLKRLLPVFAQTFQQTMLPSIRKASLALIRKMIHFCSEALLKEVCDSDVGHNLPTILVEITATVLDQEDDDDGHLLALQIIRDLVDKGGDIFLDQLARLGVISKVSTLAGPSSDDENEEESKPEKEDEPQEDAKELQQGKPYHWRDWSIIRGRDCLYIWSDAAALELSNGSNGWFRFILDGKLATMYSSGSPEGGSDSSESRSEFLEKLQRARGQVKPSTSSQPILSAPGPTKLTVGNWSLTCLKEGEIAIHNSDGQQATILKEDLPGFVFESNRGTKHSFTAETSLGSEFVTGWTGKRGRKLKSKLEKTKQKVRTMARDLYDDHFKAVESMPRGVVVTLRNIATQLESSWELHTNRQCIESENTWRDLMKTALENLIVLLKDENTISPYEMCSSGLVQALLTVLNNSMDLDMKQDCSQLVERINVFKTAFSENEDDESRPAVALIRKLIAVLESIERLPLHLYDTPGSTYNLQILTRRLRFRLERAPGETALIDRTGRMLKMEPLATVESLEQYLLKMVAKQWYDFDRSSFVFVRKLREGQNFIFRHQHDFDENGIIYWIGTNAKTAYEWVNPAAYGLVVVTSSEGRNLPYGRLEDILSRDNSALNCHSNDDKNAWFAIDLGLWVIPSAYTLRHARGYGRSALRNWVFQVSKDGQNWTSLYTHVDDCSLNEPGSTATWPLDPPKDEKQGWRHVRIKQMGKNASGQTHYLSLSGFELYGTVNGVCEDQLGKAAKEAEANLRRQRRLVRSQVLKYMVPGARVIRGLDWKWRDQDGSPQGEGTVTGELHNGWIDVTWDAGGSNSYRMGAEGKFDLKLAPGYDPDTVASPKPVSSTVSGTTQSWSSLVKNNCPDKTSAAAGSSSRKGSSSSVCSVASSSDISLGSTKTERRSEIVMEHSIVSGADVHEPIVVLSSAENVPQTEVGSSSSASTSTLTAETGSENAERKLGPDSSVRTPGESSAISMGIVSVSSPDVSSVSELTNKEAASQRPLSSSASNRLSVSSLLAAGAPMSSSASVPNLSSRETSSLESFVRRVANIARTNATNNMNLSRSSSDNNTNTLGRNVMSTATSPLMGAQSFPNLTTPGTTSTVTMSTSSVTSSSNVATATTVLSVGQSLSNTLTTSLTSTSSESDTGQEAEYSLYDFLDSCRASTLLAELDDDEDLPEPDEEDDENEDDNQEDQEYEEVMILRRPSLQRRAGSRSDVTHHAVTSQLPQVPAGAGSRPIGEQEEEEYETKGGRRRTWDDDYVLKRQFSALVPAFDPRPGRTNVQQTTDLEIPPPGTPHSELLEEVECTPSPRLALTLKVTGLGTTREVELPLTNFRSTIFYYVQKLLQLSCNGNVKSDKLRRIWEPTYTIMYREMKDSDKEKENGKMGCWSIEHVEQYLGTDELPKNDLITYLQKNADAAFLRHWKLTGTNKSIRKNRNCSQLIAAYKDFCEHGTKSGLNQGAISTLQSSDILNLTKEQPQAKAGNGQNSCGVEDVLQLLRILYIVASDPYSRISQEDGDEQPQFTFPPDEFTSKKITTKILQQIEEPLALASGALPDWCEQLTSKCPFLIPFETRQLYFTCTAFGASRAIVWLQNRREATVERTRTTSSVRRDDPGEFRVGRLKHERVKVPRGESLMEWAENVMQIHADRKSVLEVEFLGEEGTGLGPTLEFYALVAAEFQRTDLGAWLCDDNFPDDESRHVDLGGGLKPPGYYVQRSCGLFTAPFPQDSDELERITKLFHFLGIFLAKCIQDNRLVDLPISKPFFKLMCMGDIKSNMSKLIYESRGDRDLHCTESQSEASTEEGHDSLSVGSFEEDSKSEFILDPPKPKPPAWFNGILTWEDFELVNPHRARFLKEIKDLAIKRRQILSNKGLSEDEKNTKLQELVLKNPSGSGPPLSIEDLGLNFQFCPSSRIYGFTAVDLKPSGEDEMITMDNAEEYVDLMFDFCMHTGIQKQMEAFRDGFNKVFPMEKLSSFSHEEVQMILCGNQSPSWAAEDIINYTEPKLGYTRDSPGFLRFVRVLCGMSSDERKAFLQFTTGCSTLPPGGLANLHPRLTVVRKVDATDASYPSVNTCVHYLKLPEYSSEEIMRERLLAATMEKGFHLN
UniProt Q9Y3D0: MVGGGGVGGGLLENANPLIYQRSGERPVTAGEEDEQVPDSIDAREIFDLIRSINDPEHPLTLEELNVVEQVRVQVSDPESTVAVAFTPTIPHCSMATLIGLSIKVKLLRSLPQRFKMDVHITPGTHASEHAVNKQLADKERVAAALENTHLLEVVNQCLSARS
UniProt Q9UPT8: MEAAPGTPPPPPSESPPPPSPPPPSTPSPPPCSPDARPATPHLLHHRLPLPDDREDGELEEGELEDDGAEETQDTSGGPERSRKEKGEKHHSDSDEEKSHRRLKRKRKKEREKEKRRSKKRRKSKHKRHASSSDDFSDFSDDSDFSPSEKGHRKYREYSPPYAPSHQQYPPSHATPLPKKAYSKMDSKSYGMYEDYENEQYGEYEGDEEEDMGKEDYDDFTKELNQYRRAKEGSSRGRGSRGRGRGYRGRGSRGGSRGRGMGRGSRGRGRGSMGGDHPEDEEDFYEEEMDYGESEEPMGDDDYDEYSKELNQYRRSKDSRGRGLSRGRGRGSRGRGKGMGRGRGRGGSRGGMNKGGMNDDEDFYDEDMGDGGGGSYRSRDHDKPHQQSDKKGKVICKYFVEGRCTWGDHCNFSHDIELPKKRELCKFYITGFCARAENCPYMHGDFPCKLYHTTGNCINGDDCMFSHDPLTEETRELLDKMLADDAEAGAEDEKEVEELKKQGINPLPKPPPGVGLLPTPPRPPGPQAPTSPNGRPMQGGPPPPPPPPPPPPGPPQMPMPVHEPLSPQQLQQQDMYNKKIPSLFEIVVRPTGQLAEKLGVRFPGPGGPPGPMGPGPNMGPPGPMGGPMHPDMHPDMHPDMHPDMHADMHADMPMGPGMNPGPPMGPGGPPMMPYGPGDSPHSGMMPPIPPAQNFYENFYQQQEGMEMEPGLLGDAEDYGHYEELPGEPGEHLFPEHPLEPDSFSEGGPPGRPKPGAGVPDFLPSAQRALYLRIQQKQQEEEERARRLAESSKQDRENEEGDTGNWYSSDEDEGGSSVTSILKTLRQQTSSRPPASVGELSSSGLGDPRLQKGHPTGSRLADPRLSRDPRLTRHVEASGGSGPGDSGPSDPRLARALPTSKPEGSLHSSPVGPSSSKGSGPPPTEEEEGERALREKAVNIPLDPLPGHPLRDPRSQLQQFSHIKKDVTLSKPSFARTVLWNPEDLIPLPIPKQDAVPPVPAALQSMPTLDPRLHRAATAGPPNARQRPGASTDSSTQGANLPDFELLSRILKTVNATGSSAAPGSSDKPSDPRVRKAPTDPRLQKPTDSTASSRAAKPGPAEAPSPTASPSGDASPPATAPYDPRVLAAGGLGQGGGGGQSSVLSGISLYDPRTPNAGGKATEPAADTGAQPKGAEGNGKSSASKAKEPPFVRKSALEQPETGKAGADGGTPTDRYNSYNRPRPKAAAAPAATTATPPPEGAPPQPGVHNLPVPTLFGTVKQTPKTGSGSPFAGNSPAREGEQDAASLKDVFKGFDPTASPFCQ
UniProt Q9UJX3, whole entry, looked up: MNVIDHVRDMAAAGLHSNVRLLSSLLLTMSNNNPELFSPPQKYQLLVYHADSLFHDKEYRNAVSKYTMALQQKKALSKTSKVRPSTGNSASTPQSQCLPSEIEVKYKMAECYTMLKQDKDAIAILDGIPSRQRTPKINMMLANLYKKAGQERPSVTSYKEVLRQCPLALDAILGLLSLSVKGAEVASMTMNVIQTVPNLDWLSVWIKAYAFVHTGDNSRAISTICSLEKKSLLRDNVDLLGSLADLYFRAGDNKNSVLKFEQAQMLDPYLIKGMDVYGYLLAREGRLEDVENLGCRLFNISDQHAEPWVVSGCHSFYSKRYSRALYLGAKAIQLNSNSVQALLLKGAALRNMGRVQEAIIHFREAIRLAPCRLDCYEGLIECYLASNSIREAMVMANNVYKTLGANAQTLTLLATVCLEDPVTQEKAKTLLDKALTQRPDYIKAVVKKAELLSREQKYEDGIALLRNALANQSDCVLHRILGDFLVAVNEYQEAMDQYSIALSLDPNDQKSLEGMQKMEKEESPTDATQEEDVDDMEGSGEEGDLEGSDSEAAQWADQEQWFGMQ
UniProt Q9UKV3: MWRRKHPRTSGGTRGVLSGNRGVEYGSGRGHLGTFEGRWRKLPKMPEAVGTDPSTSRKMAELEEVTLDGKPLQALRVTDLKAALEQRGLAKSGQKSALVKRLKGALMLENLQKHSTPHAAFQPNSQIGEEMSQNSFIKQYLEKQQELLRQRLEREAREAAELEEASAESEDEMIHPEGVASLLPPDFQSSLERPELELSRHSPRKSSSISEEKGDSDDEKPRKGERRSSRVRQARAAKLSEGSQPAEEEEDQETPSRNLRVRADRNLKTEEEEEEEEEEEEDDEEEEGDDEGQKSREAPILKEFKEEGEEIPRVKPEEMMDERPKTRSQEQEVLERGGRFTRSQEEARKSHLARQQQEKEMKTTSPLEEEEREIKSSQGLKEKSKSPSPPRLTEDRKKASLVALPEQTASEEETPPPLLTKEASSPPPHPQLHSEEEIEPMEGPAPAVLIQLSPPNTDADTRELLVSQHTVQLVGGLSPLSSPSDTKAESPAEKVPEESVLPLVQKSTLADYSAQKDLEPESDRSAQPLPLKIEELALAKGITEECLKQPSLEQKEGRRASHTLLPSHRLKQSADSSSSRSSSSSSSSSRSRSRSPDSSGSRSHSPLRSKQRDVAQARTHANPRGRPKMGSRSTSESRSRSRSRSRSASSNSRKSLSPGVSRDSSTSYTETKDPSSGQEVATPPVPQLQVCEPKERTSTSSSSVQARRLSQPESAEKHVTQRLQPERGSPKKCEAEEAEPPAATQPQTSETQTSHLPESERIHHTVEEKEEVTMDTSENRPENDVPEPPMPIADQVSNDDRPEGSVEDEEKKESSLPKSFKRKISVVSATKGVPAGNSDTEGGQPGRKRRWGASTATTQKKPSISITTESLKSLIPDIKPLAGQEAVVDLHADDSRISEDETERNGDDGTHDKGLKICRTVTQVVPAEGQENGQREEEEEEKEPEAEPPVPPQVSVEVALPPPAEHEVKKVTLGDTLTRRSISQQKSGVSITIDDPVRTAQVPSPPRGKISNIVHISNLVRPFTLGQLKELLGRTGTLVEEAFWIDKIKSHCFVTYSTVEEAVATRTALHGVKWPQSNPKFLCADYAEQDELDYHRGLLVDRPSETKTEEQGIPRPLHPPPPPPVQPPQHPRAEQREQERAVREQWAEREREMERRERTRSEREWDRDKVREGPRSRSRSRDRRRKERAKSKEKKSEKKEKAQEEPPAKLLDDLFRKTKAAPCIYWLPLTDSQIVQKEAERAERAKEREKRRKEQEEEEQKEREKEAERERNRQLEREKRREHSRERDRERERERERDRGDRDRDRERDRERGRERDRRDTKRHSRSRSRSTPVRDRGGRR
UniProt Q9UQ13: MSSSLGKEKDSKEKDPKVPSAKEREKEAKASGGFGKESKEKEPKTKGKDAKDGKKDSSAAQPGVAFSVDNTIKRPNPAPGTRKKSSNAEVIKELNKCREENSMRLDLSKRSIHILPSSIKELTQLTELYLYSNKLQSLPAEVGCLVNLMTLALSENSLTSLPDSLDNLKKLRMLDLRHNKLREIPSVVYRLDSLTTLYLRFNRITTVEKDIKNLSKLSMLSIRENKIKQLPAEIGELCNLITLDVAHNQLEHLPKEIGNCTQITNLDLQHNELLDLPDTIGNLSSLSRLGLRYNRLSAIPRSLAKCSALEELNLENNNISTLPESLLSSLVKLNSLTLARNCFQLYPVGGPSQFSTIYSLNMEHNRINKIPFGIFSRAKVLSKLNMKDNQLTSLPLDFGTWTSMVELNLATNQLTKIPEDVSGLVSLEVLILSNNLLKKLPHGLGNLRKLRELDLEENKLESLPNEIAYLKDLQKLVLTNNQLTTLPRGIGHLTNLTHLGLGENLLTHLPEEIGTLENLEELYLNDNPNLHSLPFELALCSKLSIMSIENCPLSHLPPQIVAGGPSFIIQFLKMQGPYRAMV

This is a selection; strong and weak results do not stand in their true shares.

Compound in the experiment: COC(=O)C#Cc1ccccc1 [methyl 3-phenylpropiolate]
In words: log2 ratio of iodoacetamide-alkyne labeling of the cysteine site, DMSO over compound (competition); higher = stronger covalent engagement of the cysteine by the compound, active = 1 or more. The conditions noted are these: 500 µM; treatment time 1 h; system: HEK293T cell lysate. In a few lines:
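Reporter intensities give each cysteine's log2 competition ratio as the mean of control channels over the mean of compound channels. The samples were HEK293T lysate (2 mg/mL) given vehicle or electrophile (500 µM, 1 h, ambient temperature), then iodoacetamide alkyne (1 h), followed by click coupling to sCIP-TMT reagents, pooling, trypsin digestion overnight at 37 °C, streptavidin enrichment, acid elution, Orbitrap Eclipse LC-MS/MS with FAIMS and FragPipe quantification. Duplicate channels and three replicates were run, and cysteines quantified in only one replicate were discarded.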
In the case of HECTD1 C2195 (UniProt Q9ULT8), the “log2 ratio of iodoacetamide-alkyne labeling” value (from here on “log2 ratio”) is inactive: 0.443.
Under ICE1 C1616 (UniProt Q9Y2F5) stands inactive: 0.593.
With AK6 C53 (UniProt Q9Y3D8), the “log2 ratio” value is inactive: 0.109.
Turning to DCTN4 C258 (UniProt Q9UJW0), the “log2 ratio” value is inactive: 0.483.
Take SRRM2 C1016 (UniProt Q9UQ35): the “log2 ratio” value was active: 1.12.
Turning to NOP58 C106 (UniProt Q9Y2X3), the “log2 ratio” value is inactive: 0.686.
For USP24 C14 (UniProt Q9UPU5), the “log2 ratio” value is inactive: 0.224.
POLDIP2 C143 (UniProt Q9Y2S7): the “log2 ratio” value is inactive: 0.786.
For TRIM33 C153 (UniProt Q9UPN9), the “log2 ratio” value was inactive: 0.274.
As to UniProt Q9Y3D0_C93, the “log2 ratio” value is inactive: 0.0692.
Turning to PRPF19 C5 (UniProt Q9UMS4), the “log2 ratio” value is inactive: 0.304.
As for HOOK1 C432 (UniProt Q9UJC3), the “log2 ratio” value was inactive: 0.385.
For CORO1C C456 (UniProt Q9ULV4), the “log2 ratio” value is inactive: 0.0121.
On to TRIM33 C461 (UniProt Q9UPN9), for which the “log2 ratio” value was inactive: 0.461.
Turning to NOTCH3 C134 (UniProt Q9UM47), the “log2 ratio” value was active: 1.63.
On to SMC3 C650 (UniProt Q9UQE7), for which the “log2 ratio” value is inactive: -0.263.
For the target UniProt Q9UPN7_C689, the “log2 ratio” value was inactive: 0.174.
ZC3H4 C1302 (UniProt Q9UPT8): the “log2 ratio” value is inactive: 0.0969.
As for VPS51 C421 (UniProt Q9UID3), the “log2 ratio” value was inactive: -0.193.
In the case of ANAPC7 C131 (UniProt Q9UJX3), the “log2 ratio” value was inactive: 0.289.
Regarding PLCL2 C90 (UniProt Q9UPR0), the “log2 ratio” value was inactive: 0.408.
On to CHORDC1 C86 (UniProt Q9UHD1), for which the “log2 ratio” value was inactive: 0.526.
Consider DDX20 C98 (UniProt Q9UHI6), for which the “log2 ratio” value is inactive: 0.353.
Then BAG5 C213 (UniProt Q9UL15), with inactive: -0.128; and MCTS1 C14 (UniProt Q9ULC4), with inactive: 0.00281; and SNX12 C141 (UniProt Q9UMY4), with inactive: 0.351.
For PRPF19 C16 (UniProt Q9UMS4), the “log2 ratio” value is inactive: 0.285.
Consider ACIN1 C1083 (UniProt Q9UKV3), for which the “log2 ratio” value was inactive: 0.091.
For the target UniProt Q9Y3B4_C83, the “log2 ratio” value was inactive: 0.2.
XPO7 C15 (UniProt Q9UIA9): the “log2 ratio” value is inactive: -0.00361.
As to UniProt Q9Y312_C156, the “log2 ratio” value is inactive: 0.41.
Then UniProt Q9Y3I0_C193, with inactive: 0.142; and TBC1D24 C8 (UniProt Q9ULP9), with inactive: 0.177; and SHOC2 C306 (UniProt Q9UQ13), with inactive: 0.273.
As to CIZ1 C252 (UniProt Q9ULV3), the “log2 ratio” value is inactive: 0.198.
As for MRPS18C C90 (UniProt Q9Y3D5), the “log2 ratio” value is inactive: 0.167.
DIS3 C213 (UniProt Q9Y2L1): the “log2 ratio” value is inactive: 0.313.
